1 molecule from patent EP4843986A1, “ANGIOTENSIN II RECEPTOR ANTAGONIST AND USE THEREOF IN TREATMENT OF PERIPHERALLY-INDUCED NEUROPATHIC PAIN” (dated 2026) can be followed below.

The chains behind the UniProt entries cited, without tags or fusion partners.
UniProt P35374, whole entry: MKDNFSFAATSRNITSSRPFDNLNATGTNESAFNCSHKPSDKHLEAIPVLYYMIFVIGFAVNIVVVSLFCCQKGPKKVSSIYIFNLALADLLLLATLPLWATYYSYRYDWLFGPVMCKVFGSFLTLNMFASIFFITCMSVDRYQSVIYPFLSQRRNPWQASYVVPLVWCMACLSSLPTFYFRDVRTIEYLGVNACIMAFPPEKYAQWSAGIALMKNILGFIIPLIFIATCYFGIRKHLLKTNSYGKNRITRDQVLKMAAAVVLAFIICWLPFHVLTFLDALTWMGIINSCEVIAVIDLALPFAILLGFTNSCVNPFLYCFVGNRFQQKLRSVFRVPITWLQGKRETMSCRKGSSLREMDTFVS

The match of structure and compound is tentative.

For one assay, the target named is AT2R (Mus musculus, UniProt P35374). The assay can be described thus: AT2R expression in RAW264.7 cells (Western blot and RT-PCR). To be noted: AngII alone at 10, 30, 50, 100, and 200 nM, 24 h, vs negative control. As to the method: RAW264.7 cells were cultured in DMEM supplemented with 10% FBS at 37°C. Experiments were initiated when the cell confluence reached 70%. After the RAW264.7 cells were subjected to different groups of treatments, the supernatants were collected and centrifuged at 1000 × g and 4°C to remove cell pellets. The obtained supernatants were added to HT22 cells in DMEM supplemented with 10% FBS, followed by co-cultivation at 37°C.
Detection of AT2R Expression: When the confluence of RAW264.7 cells reached 70%, AngII (10, 30, 50, 100, and 200 nM) was added. The negative control group was treated with an equal volume of saline. After 24 h of treatment, the cells were collected for protein and RNA extraction to assess AT2R expression levels.
Assay for the Inhibitory Effect of A1 on AT2R: When the confluence of RAW264.7 cells reached 70%, a fixed concentration of AngII and serial concentrations of A1 (10, 30, 50, 100, and 200 nM) were added. The negative control group was treated with an equal volume of saline (without AngII). […]
Western Blot (WB): 1) RAW264.7 and HT22 cells subjected to different groups of treatments were lysed with lysis buffer (containing 10 µL PMSF (100×) and 10 µL phosphatase inhibitor per milliliter of lysis buffer) for protein extraction. […] 3) The protein concentration in lysates was quantified using the BCA Protein Assay Kit (Thermo Fisher Scientific). […]
In general terms: In western blotting, separated proteins are transferred to a membrane and probed.

The subject of assay [1] is mouse peritoneal macrophages. Put plainly: AngII-induced reactive oxygen species generation in mouse peritoneal macrophages (DCFH-DA fluorescence). To be noted: AngII alone (0.2 µM); vs blank vehicle control group. The text has this: Mouse peritoneal macrophages express angiotensin II type 2 receptors (AT2R). As a ligand for AT2R, angiotensin II (AngII) binds to AT2R and induces an increase of reactive oxygen species (ROS) produced in mouse peritoneal macrophages. This assay assesses whether AT2R antagonists inhibit AngII-induced ROS generation in mouse peritoneal macrophages by inhibiting AT2R on mouse peritoneal macrophages.
Six-week-old male C57BL/6 mice were euthanized. Primary mouse peritoneal macrophages were harvested by intraperitoneal injection of phenol red-free medium. After centrifugation, the macrophages were suspended in RPMI1640 + 5% FBS medium (containing 50 ng/µl GM-CSF) and cultured in a 37°C, 5% CO2 incubator for 2 days. Thereafter, the macrophages were seeded into 96-well plates and allowed to adhere for 24 hours. […] The ROS generation level of macrophages in each group was determined by real-time fluorescence scanning. […]
Data were collected using Excel software. Data were analyzed using Prism 6.01 (GraphPad Software, Inc.) software (one-way ANOVA). The experimental results of each group were statistically analyzed to compare statistical differences among groups, and p < 0.05 was considered statistically significant.

As for `CC[C@H](C)[C@H](NC(=O)[C@H](Cc1ccc(O)cc1)NC(=O)[C@@H](NC(=O)[C@H](CCCNC(=N)N)NC(=O)[C@@H](N)CC(=O)O)C(C)C)C(=O)N[C@@H](Cc1cnc[nH]1)C(=O)N1CCC[C@H]1C(=O)N[C@@H](Cc1ccccc1)C(=O)O`, the “protein and mRNA levels of AT2R” value on AT2R was “elevated”. In addition, in assay [1], the “level of reactive oxygen species generated by macrophages” value is given as “markedly elevated”.
